Primary screen of a compound library

The chains behind the UniProt entries cited, without tags or fusion partners.
UniProt E9BF75, entry or part of it: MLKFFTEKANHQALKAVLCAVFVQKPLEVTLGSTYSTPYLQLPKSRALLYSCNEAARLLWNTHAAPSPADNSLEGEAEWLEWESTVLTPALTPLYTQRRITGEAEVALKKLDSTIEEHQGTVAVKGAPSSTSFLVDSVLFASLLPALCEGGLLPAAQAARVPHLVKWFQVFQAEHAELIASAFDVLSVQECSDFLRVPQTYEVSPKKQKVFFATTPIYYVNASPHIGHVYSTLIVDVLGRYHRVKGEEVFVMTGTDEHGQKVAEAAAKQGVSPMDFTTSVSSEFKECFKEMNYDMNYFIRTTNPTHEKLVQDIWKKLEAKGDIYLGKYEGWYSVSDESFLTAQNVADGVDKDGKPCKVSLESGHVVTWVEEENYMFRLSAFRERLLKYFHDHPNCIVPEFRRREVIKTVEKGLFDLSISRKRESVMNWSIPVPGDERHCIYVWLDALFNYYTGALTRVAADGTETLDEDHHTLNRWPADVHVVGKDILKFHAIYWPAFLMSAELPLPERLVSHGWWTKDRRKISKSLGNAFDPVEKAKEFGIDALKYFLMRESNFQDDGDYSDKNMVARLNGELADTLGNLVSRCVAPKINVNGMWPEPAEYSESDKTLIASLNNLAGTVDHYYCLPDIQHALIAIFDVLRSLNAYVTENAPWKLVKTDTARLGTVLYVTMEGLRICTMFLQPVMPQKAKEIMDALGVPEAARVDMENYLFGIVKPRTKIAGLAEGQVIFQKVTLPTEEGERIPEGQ

Data taken from ChEMBL document CHEMBL3988442, “University of Dundee, Small-Polar-MMV Screening Library” (2021).

Results are percentages, as filed.
The controls that fix the scale are not given in the record; negative values are as filed.
The compounds are a random part of those screened.
A dash means the value is not listed here; it may have been measured.

A: 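Methionyl-tRNA synthetase (putative), Leishmania donovani (UniProt E9BF75). Primary screen of methionyl-tRNA synthetase; the read-out is not stated. The test concentration is not given. Values are per cent inhibition. Size under these conditions: about 68,000 compounds, about 24 of them at 50% or above in at least one test.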
B: 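Assay on Mycobacterium tuberculosis, filed only as a heat shock assay from Cornell; the read-out is not stated. The concentration is filed as 10 mM, unlikely as a test dose, so the dose is not known. Direction is inferred from retests: higher values go with stronger inhibition. Size under these conditions: about 69,000 compounds, about 930 of them at 50% or above in at least one test.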

SMILES	A	B
O=C(O)C(F)(F)F.[H][C@]12CCC[C@@H](CN3CCOCC3)[C@@]1([H])CN(c1cc(OC)ncn1)C2	-	-25.09
CC(=O)N1CCOC2(CCCN(C(=O)c3ccc(Cl)cc3)C2)C1 (stereo not drawn)	12.94	10.52
Cc1cc2nc(C(=O)NCc3cccnc3N(C)C)cc(C)n2n1	11.18	4.152
[H][C@@]12C[C@H](C)O[C@]1([H])CCN(C(=O)c1cccc3c1OCCO3)C2	-	-9.305
COCCN(C)[C@@H]1c2ccccc2C2(CCNCC2)[C@H]1O	10.44	-4.727
CSc1ncccc1C(=O)Nc1ccc(Cn2ccccc2=O)cc1	10.79	5.912
CCN1C[C@@H]2[C@@H](OC)CCN(C(=O)Cc3ccsc3)[C@@H]2C1	17.93	-
Cc1cc(NCc2cccnc2)n2nc(C)cc2n1	14.81	1.456
Cc1noc(C)c1CS(=O)(=O)Cc1nc(C2CC2)no1	6.832	6.324
Cc1cc(CN2CCN(C(=O)NC(C)c3cccs3)CC2)on1 (stereo not drawn)	9.29	3.722
Cc1nc(NCc2ccc(F)cc2)cc(C2CCCN2)n1.Cl (stereo not drawn)	-	-1.482
CC(=O)N1CCn2c(-c3ccccc3)cnc2C12CCNCC2.O=C(O)C(F)(F)F.O=C(O)C(F)(F)F	-	7.353
O=C(C[S+]([O-])Cc1c(F)cccc1Cl)N1CCc2sccc2C1 (stereo not drawn)	1.504	-11.86
CNS(=O)(=O)CCNc1cc(C)nc2cc(C)nn12	12.11	10.96
CCOC1CCN(C(=O)NCc2cccc(-n3cccn3)c2)CC1	9.399	0.4135
Cc1noc(C(C)C)c1C(=O)N1CCCN(Cc2cscn2)CC1	14.58	9.519
O=C(NC1CCN(C2CC2)CC1)c1cc(Cl)ccc1-n1cnnn1	-	-34.49
O=C(Cc1n[nH]c2ccccc12)N1CCC(Nc2cccnn2)CC1	9.408	5.828
Cn1cc(CN2CCCC3(COCCN(c4cccnc4)C3)C2)cn1.O=C(O)C(F)(F)F.O=C(O)C(F)(F)F (stereo not drawn)	-	-9.687
CC(C)Cc1noc(CN(C)c2cc(C(C)C)nc3ccnn23)n1	9.207	25.75
O=C(CCCNC(=O)NCC1CCCO1)Nc1ccc(Cl)cc1 (stereo not drawn)	18.82	40.56
Cc1ccc(C(=O)N2CCOC(c3nc(C(C)(C)C)n[nH]3)C2)c(=O)[nH]1 (stereo not drawn)	13.59	4.467
CCNC(=O)CN(CC)C(=O)Cc1csc(C(C)C)n1	-0.2688	-8.279
O=C(COc1ccc(Cl)cc1)N1CCOCC1c1ncon1 (stereo not drawn)	7.055	1.175
Cc1c(Br)cccc1C(=O)NCc1cnn(C)c1	9.777	-14.08
CN(C)[C@@H]1CN(Cc2cccnc2)C[C@H]1c1cn(C)c2ccccc12	6.854	-
O=C(O)C(F)(F)F.O=C(O)C(F)(F)F.[H][C@@]12COC[C@H](NS(C)(=O)=O)[C@]1([H])CN(Cc1cccc(C)n1)C2	-	-19.69
c1cnnc(N2CCCC2CNCc2nc(C3CC3)no2)c1 (stereo not drawn)	6.748	52.74
CN(C)CCN1C(=O)C2(CCN(CC3CC3)CC2)c2ccccc21	16.42	-
CCc1noc(CN(CC)Cc2cc3cc(C)ccc3[nH]c2=O)n1	-4.604	47.09
Fc1cnc(N2CC3(CCN(CC4CC4)C3)C2)nc1.O=C(O)C(F)(F)F	-	-4.931
O=c1cc(CN(Cc2ccco2)C2CC2)nc2ccc(Br)cn12	2.338	10.02
CCc1nc(Cn2c(=O)n(CC)c3ccccc32)no1	15.66	-1.25
Cc1cc(C[S+]([O-])CC(=O)NCc2cccc(Cl)c2)no1 (stereo not drawn)	15.1	-12.19
Cc1[nH]ccc1C(=O)N(C)C1CC(=O)N(Cc2ccccc2)C1=O (stereo not drawn)	10.8	9.546
CC(C)(C)c1ccc(S(=O)(=O)CCN2CCNC(=O)CC2)cc1	11.17	-10.97
Cc1noc(Cl)c1CC(=O)NCC(C)(O)c1ccc(F)cc1F (stereo not drawn)	5.128	-15.55
CN1CCN(c2ncnc3c2c(C(=O)NC2CC2)c2ccccn23)CC1	7.296	1.737
CCC(C(=O)N(Cc1ccccn1)C1CCCCC1)n1cccn1 (stereo not drawn)	7.666	-19.92
c1cc2c(cc1CN1C[C@@H]3COC[C@@H](N4CCCC4)[C@@H]3C1)OCO2	11.5	-
O=C(N1CCN(CCO)CC1)C1(O)Cc2ccccc2C1	13.65	-8.81
Cc1ccc(F)cc1-n1c(COC(C)C)n[nH]c1=O	5.226	-14.98
CCCOCC1CCN(C(=O)c2cnc(C)nc2O)C1 (stereo not drawn)	7.161	12.37
Cc1ccc(C2COCCN2C(=O)c2ccc(N(C)C)cc2)o1 (stereo not drawn)	9.756	-15.98

For reference, 5 entries once more:

| SMILES | A | B |
|---|---|---|
| `O=C(O)C(F)(F)F.O=C(O)C(F)(F)F.[H][C@@]12COC[C@H](NS(C)(=O)=O)[C@]1([H])CN(Cc1cccc(C)n1)C2` | - | -19.69 |
| `O=C(C[S+]([O-])Cc1c(F)cccc1Cl)N1CCc2sccc2C1` (stereo not drawn) | 1.504 | -11.86 |
| `COCCN(C)[C@@H]1c2ccccc2C2(CCNCC2)[C@H]1O` | 10.44 | -4.727 |
| `O=C(N1CCN(CCO)CC1)C1(O)Cc2ccccc2C1` | 13.65 | -8.81 |
| `Cc1cc(C[S+]([O-])CC(=O)NCc2cccc(Cl)c2)no1` (stereo not drawn) | 15.1 | -12.19 |